Results from one PubChem assay

The results are deposited in PubChem (AID2668; NCATS, 2010).

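Mouse embryonic fibroblasts (Tsc2-/- p53-/- with wild-type Tsc2 restored) treated one day with compounds; read-out is phospho-rpS6 Ser235/236 antibody signal normalized to propidium iodide staining. Compounds were run as a concentration series from about 0.0024 to 38 µM. The number is a fitted potency (AC50) for inhibition of rpS6 phosphorylation; a lower value means a more potent compound. Calls come from curve class and an activity score: scores 40–100 are active, 1–39 inconclusive, and 0 inactive.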

Values are in µM. All entries here are filed as inconclusive. These entries are mostly ones the record files as inconclusive; other results of the assay are not listed here. A potency from a partial, single-point or poor curve is only a rough figure. Some entries filed as inconclusive have a full curve. Activity scores are not listed here.

* C=CCNc1ncnc2ccc(Br)cc12 : potency 23.28 µM (falling, single point)
* CC(C)(C)c1cc(/C=C(\C#N)C(N)=S)cc(C(C)(C)C)c1O : potency 23.28 µM (falling, single point)
* CN(C)c1cc2c(Nc3ccc4c(cnn4Cc4ccccc4)c3)ncnc2cn1 : potency 26.12 µM (falling, single point)
* CN[C@H]1CC[C@@H](c2ccc(Cl)c(Cl)c2)c2ccccc21 : potency 26.12 µM (falling, single point)
* CCNC(=O)N1CCN(CCCC(c2ccc(F)cc2)c2ccc(F)cc2)CC1 : potency 23.28 µM (falling, single point)
* Oc1ccc2c3c1O[C@H]1c4[nH]c5ccccc5c4C[C@@]4(O)C(C2)N(CC2CC2)CCC314 (stereo partly shown) : potency 23.28 µM (falling, single point)
* Clc1ccc(C(c2ccc(Cl)cc2)n2cc[n+](CC(OCc3ccc(Cl)cc3Cl)c3ccc(Cl)cc3Cl)c2)cc1 (stereo not shown) : potency 23.28 µM (falling, single point)
* OC1(c2ccc(Cl)cc2)CCN(Cc2c[nH]c3ccccc23)CC1 : potency 14.69 µM (falling, single point)
* CN(C)CCCN1c2ccccc2CCc2ccc(Cl)cc21 : potency 14.69 µM (falling, single point)
* O=[N+]([O-])/C=C/c1ccc2c(c1)OCO2 : potency 2.931 µM (falling, full curve)
* O=C(Nc1ccccc1)c1cc([N+](=O)[O-])ccc1Cl : potency 14.69 µM (falling, single point)
* CCCC1(C)C(C#N)(C#N)C1(C#N)C#N : potency 5.212 µM (falling, single point)
* CN1CCc2cc(O)cc3c2[C@H]1Cc1ccc(O)c(O)c1-3 : potency 14.69 µM (falling, single point)
* CC1=C(C)C(=O)C(CCCCC#CCCCC#CCO)=C(C)C1=O : potency 13.09 µM (falling, single point)
* CCC1(O)CC2CN(CCc3c([nH]c4ccccc34)[C@@](C(=O)OC)(c3cc4c(cc3OC)N(C=O)C3[C@]45CCN4CC=C[C@@](CC)([C@@H](OC(C)=O)[C@]3(O)C(=O)OC)[C@H]45)C2)C1 (stereo partly shown) : potency 0.9268 µM (falling, full curve)
* CC(=O)O[C@H]1C(=O)[C@@]2(C)C([C@H](OC(=O)c3ccccc3)[C@]3(O)C[C@H](OC(=O)[C@H](O)[C@@H](NC(=O)c4ccccc4)c4ccccc4)C(C)=C1C3(C)C)[C@]1(OC(C)=O)CO[C@@H]1C[C@@H]2O (stereo partly shown) : potency 0.369 µM (falling, full curve, poor fit)
* c1ccc(CN2CCC3(CCCc4ccccc43)CC2)cc1 : potency 23.28 µM (falling, single point)
* CC12C(=O)OC(=O)C1(C)C1CCC2O1 (stereo not shown) : potency 26.12 µM (falling, single point)
* Nc1nc(N)c2nc(-c3ccccc3)c(N)nc2n1 : potency 16.48 µM (falling, single point)
* N#Cc1cc([N+](=O)[O-])c2sc(C(N)=O)[n+]([O-])c2c1 : potency 14.69 µM (falling, single point)
* CCCNCC(O)COc1ccccc1C(=O)CCc1ccccc1 (stereo not shown) : potency 26.12 µM (falling, single point)